The target of this assay is 4Ig domain of DCC. Put plainly: plate binding assay, N-Raft-AP on wells coated with DCC-4Ig (FIG. 9C).

No constants are given. Whether binding was seen depends on the method and setting. Where a sequence is shown, tags or fusion partners need not be part of it.

B1: N-Raft fused with alkaline phosphatase (peptide, not shown: large carriers)
chain: SPCKILKCNSEFWAATSGSHHLGAEETPEFCTALRAYAHCTRRTAR
Consider B1, for which the binding result is given as “no binding”.

(Values after US20160271230A1 (UNIVERSITY HEALTH NETWORK, published 2016).)
